The values below come from publication PMC6751655.

By UniProt entry, the sequences of proteins in these tests, tags left out. Where a name states a change or a piece, a line headed by the entry shows the natural chain unless it says otherwise.
UniProt P61960: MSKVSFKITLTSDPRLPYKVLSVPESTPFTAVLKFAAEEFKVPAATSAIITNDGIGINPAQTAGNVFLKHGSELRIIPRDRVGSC
UniProt O95863: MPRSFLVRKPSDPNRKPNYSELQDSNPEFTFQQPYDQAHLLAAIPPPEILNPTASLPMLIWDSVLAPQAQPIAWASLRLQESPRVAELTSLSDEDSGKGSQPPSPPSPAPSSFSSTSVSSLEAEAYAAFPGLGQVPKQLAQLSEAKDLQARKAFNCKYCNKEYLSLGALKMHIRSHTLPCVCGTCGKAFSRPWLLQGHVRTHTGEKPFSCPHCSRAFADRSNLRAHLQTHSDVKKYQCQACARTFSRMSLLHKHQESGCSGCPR

The target in test [1] is Ubiquitin-fold modifier 1 (human (endogenous in AGS)) (UniProt P61960). The test can be described thus: co-IP; immunoprecipitation with UFM1 antibody from lysates of AGS cells (Figure S4A) or stable AGS cells (Fig. 5a, down panel), overnight at 4 °C; Protein A-Sepharose beads; Western blot.
For test [2], the target named is T1, Protein 3-phosphoinositide-dependent protein kinase-1 (human (endogenous in AGS)) (UniProt O15530).
T1 sequence: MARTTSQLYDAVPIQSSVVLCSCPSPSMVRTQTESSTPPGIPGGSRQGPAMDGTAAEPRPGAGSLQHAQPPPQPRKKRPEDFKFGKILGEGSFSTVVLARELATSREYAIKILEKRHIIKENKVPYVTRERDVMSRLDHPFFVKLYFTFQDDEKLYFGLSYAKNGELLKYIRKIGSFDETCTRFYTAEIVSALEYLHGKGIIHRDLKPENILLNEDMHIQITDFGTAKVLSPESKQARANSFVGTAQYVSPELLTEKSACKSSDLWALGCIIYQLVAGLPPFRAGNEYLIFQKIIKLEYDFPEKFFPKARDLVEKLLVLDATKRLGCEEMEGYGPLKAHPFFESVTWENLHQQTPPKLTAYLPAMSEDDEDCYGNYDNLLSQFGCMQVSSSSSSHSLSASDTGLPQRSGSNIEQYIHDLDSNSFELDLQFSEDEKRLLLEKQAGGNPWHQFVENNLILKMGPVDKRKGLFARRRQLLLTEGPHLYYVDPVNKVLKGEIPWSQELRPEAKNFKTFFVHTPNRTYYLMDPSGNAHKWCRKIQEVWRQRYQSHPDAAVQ
The test can be described thus: co-IP; immunoprecipitation with PDK1 antibody from AGS cell lysates, overnight at 4 °C; Protein A-Sepharose beads; Western blot.

The target in test [3] is UFM1 in stable AGS cells (human (AGS cells; species of the lentiviral cDNA not stated)) (UniProt P61960). The test can be described thus: co-IP; immunoprecipitation with UFM1 antibody from lysates of AGS cells (Figure S4A) or stable AGS cells (Fig. 5a, down panel), overnight at 4 °C; Protein A-Sepharose beads; Western blot. A general note: Immunoblotting shows a protein as a band on a membrane.

No constants are given. Whether binding was seen depends on the method and setting. In cells and extracts the contact can be indirect. Some entries that bind do so weakly or less than the wild type.

For the molecule Snail (from UniProt O95863 1-264), the binding result in test [1] is listed as “no binding”. As for “Ubiquitin-fold modifier 1 (from UniProt P61960-1 1-85)”, in test [2], the binding result is listed as “binds”.

B1: Protein 3-phosphoinositide-dependent protein kinase-1 (protein, UniProt O15530 1-556)
chain: MARTTSQLYDAVPIQSSVVLCSCPSPSMVRTQTESSTPPGIPGGSRQGPAMDGTAAEPRPGAGSLQHAQPPPQPRKKRPEDFKFGKILGEGSFSTVVLARELATSREYAIKILEKRHIIKENKVPYVTRERDVMSRLDHPFFVKLYFTFQDDEKLYFGLSYAKNGELLKYIRKIGSFDETCTRFYTAEIVSALEYLHGKGIIHRDLKPENILLNEDMHIQITDFGTAKVLSPESKQARANSFVGTAQYVSPELLTEKSACKSSDLWALGCIIYQLVAGLPPFRAGNEYLIFQKIIKLEYDFPEKFFPKARDLVEKLLVLDATKRLGCEEMEGYGPLKAHPFFESVTWENLHQQTPPKLTAYLPAMSEDDEDCYGNYDNLLSQFGCMQVSSSSSSHSLSASDTGLPQRSGSNIEQYIHDLDSNSFELDLQFSEDEKRLLLEKQAGGNPWHQFVENNLILKMGPVDKRKGLFARRRQLLLTEGPHLYYVDPVNKVLKGEIPWSQELRPEAKNFKTFFVHTPNRTYYLMDPSGNAHKWCRKIQEVWRQRYQSHPDAAVQ
Turning to B1, the binding result in test [3] is reported as “binds”.
